PubChem BioAssay AID1053208 | Peter MacCallum Cancer Centre – 2014
This is a random part of about 17,000 reagents. 788 of them (4.7%) were called active. 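Calls rest on z-score classes alone; an extra cut-off of viability at most 70% of control was not applied to them.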 A number with no mark means an inactive call. The numbers tell different reagents against one gene apart. Further read-outs or replicates are left out here.

- Assay: 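Synthetic lethal interactions between gene loss and doxorubicin in osteosarcoma cells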 (primary screen)
- System: mouse osteosarcoma cells, early-passage culture from an engineered mouse model of fibroblastic bone tumour
- Reagent: siRNA pool against mouse genes, 40 nM
- Timing: about 120 h (48 h before drug, then 72 h with drug)
- Challenge: doxorubicin 100 nM for 72 h, roughly 30-40% inhibitory dose
- Detection: 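Luminescent ATP signal taken as viability with or without 100 nM doxorubicin for 72 h; mean of two wells set against non-targeting siRNA and turned into robust z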
- Direction: viability z-score with doxorubicin: higher = more viable cells under doxorubicin; viability z-score without drug: higher = more viable cells with knock-down alone
- Rule for the call: 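a pool counts as active when its viability z-score with doxorubicin is -2 or below and its z-score without drug lies between -2 and 2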

Uchl4 (ubiquitin carboxyl-terminal esterase L4) scored combined z-score class no change with or without drug; viability z-score with doxorubicin 1.12; viability z-score without drug -0.17.
Tnfrsf17 (tumor necrosis factor receptor superfamily, member 17) scored combined z-score class no change with or without drug; viability z-score with doxorubicin -1.12; viability z-score without drug -0.84.
Silencing of M1ap (meiosis 1 associated protein) came out at: combined z-score class no change with or without drug; viability z-score with doxorubicin -1.12; viability z-score without drug -0.51.
Depletion of Vma12 (vacuolar ATPase assembly factor VMA12) came out at: combined z-score class no change with or without drug; viability z-score with doxorubicin -0.34; viability z-score without drug -0.17.
Silencing of Cep72 (centrosomal protein 72) came out at: combined z-score class no change with or without drug; viability z-score with doxorubicin 0; viability z-score without drug 0.84.
For Ethe1 (ethylmalonic encephalopathy 1) the deposit lists combined z-score class no change with or without drug; viability z-score with doxorubicin 1.35; viability z-score without drug 0.67.
Depletion of Uqcr11 (ubiquinol-cytochrome c reductase, complex III subunit XI) gave: combined z-score class high cell count with doxorubicin only; viability z-score with doxorubicin 2.59; viability z-score without drug 1.01.
Against Pkhd1 (polycystic kidney and hepatic disease 1), the entry reads combined z-score class no change with or without drug; viability z-score with doxorubicin -0.22; viability z-score without drug -0.84.
After knock-down of Slc25a38 the results were combined z-score class no change with or without drug; viability z-score with doxorubicin -0.34; viability z-score without drug -1.01.
Gpaa1 (GPI anchor attachment protein 1) showed combined z-score class no change with or without drug; viability z-score with doxorubicin 0.56; viability z-score without drug 0.84.
Against Sgip1 (SH3-domain GRB2-like (endophilin) interacting protein 1) the deposit lists combined z-score class no change with or without drug; viability z-score with doxorubicin 0.11; viability z-score without drug -0.51.
Cpsf4l (cleavage and polyadenylation specific factor 4-like) scored combined z-score class no change with or without drug; viability z-score with doxorubicin 0; viability z-score without drug 0.34.
With knock-down of Asb2 (ankyrin repeat and SOCS box-containing 2), the screen gave combined z-score class no change with or without drug; viability z-score with doxorubicin -0.56; viability z-score without drug -0.17.
Bhlha15 (basic helix-loop-helix family, member a15) showed combined z-score class no change with or without drug; viability z-score with doxorubicin 1.35; viability z-score without drug -0.17.
Depletion of Hecw2 gave: combined z-score class no change with or without drug; viability z-score with doxorubicin -0.22; viability z-score without drug 0.67.
After knock-down of Ces2a (carboxylesterase 2A), the screen gave combined z-score class no change with or without drug; viability z-score with doxorubicin 0; viability z-score without drug 0.51.
For Ndufb5 (NADH:ubiquinone oxidoreductase subunit B5) the deposit lists combined z-score class no change with or without drug; viability z-score with doxorubicin 0.45; viability z-score without drug -0.84.
Chmp5 (charged multivesicular body protein 5) gave combined z-score class no change with or without drug; viability z-score with doxorubicin -1.57; viability z-score without drug 1.35.
Herpud1 gave combined z-score class no change with or without drug; viability z-score with doxorubicin -1.01; viability z-score without drug -0.17.
After knock-down of Zfp819 (zinc finger protein 819), the screen gave combined z-score class low cell count without drug only; viability z-score with doxorubicin 0.22; viability z-score without drug -2.19.
Against 9430019C24Rik (RIKEN cDNA 9430019C24 gene) the deposit lists combined z-score class no change with or without drug; viability z-score with doxorubicin -0.9; viability z-score without drug -0.17.
Fbln1 (fibulin 1) showed combined z-score class no change with or without drug; viability z-score with doxorubicin 0.11; viability z-score without drug 1.35.
After knock-down of Myl7 (myosin, light polypeptide 7, regulatory) the results were combined z-score class no change with or without drug; viability z-score with doxorubicin -0.45; viability z-score without drug -0.67.
Elovl6 (ELOVL fatty acid elongase 6) showed combined z-score class no change with or without drug; viability z-score with doxorubicin -1.57; viability z-score without drug 1.85.
Ucp3 gave combined z-score class no change with or without drug; viability z-score with doxorubicin 0.45; viability z-score without drug -1.35.
With knock-down of Polr2a (polymerase (RNA) II (DNA directed) polypeptide A), the screen gave combined z-score class low cell count with doxorubicin only (active); viability z-score with doxorubicin -3.26; viability z-score without drug -1.01.
With knock-down of Il36a (interleukin 36A), the record shows combined z-score class no change with or without drug; viability z-score with doxorubicin 0.9; viability z-score without drug 1.52.
After knock-down of Slc38a9 #1 the results were combined z-score class no change with or without drug; viability z-score with doxorubicin -0.11; viability z-score without drug -1.18.
After knock-down of Slc38a9 #2 the results were combined z-score class no change with or without drug; viability z-score with doxorubicin -0.11; viability z-score without drug -0.17.

5 entries from above, reformatted.
{"Gene": "Slc25a38", "reagent no.": 1, "combined z-score class": "no change with or without drug", "viability z-score with doxorubicin": -0.34, "viability z-score without drug": -1.01}
{"Gene": "Gpaa1 (GPI anchor attachment protein 1)", "reagent no.": 1, "combined z-score class": "no change with or without drug", "viability z-score with doxorubicin": 0.56, "viability z-score without drug": 0.84}
{"Gene": "Sgip1 (SH3-domain GRB2-like (endophilin) interacting protein 1)", "reagent no.": 1, "combined z-score class": "no change with or without drug", "viability z-score with doxorubicin": 0.11, "viability z-score without drug": -0.51}
{"Gene": "Cpsf4l (cleavage and polyadenylation specific factor 4-like)", "reagent no.": 1, "combined z-score class": "no change with or without drug", "viability z-score with doxorubicin": 0, "viability z-score without drug": 0.34}
{"Gene": "Asb2 (ankyrin repeat and SOCS box-containing 2)", "reagent no.": 1, "combined z-score class": "no change with or without drug", "viability z-score with doxorubicin": -0.56, "viability z-score without drug": -0.17}
